Record: PubChem BioAssay AID720505 (Drosophila RNAi Screening Center, 2013)
In all, the deposit lists about 20,000 reagents; shown is a random part of those with a known target gene and a result. In the full data, about 2,100 (10%) are marked active. 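Raw plate signals without normalisation; calls rest on control-based scores that were not deposited; replicate 2 separates called from uncalled poorly.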 Unmarked entries are inactive. The numbers tell different reagents against one gene apart. The record does not give: the amount of reagent, the time to read-out.

Purpose: 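Fly regulators or components of the CRAC channel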 (primary screen)
System: Drosophila S2R+ cells
Knock-down reagent: long dsRNA against Drosophila genes
Treatment: thapsigargin (2 µM) in calcium-free buffer to empty internal stores, then 2 mM calcium added back
Detection: 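Stores emptied by 2 µM thapsigargin without calcium, then 2 mM calcium re-added; fluo-4 fluorescence followed by FLIPR in 384-well plates, per-well averaged endpoint, raw; two screen passes, some wells retested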
Reading the numbers: calcium signal: higher = more calcium entry after store depletion
Hit rule: 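Knock-downs counted as hits when calcium entry dropped relative to STIM1 positive and Rho1 negative controls present on each plate; roughly 1500 genes called, with reductions of differing size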
Calls: active = called as lowering calcium entry; inactive = not called

With CG5112 (GeneID 43083), what does the deposit list?
calcium signal, replicate 1: 101; calcium signal, replicate 2: 118

With CG42326 (GeneID 35838) #1, what was measured?
calcium signal, replicate 1: 102; calcium signal, replicate 2: 147

For CG42326 (GeneID 35838) #2, what was measured?
calcium signal, replicate 1: 136; calcium signal, replicate 2: 152

Which result is listed for TTLL4B (GeneID 33609)?
calcium signal, replicate 1: 129; calcium signal, replicate 2: 188

For asRNA:CR30267 (GeneID 12798141), how do the results read?
calcium signal, replicate 1: 154; calcium signal, replicate 2: 103

With flip (GeneID 40539), what was measured?
calcium signal, replicate 1: 99.3; calcium signal, replicate 2: 197

Which result is listed for CG17111 (GeneID 42727)?
calcium signal, replicate 1: 178; calcium signal, replicate 2: 145

What did the screen give for CG10958 (GeneID 31736)?
calcium signal, replicate 1: 104; calcium signal, replicate 2: 78.7

With wol (GeneID 34134), what was measured?
calcium signal, replicate 1: 112; calcium signal, replicate 2: 305

What is on record for P32 (GeneID 37006)?
calcium signal, replicate 1: 152; calcium signal, replicate 2: 140

What is on record for wac (GeneID 38044)?
calcium signal, replicate 1: 94.5; calcium signal, replicate 2: 113

4 entries already listed, sorted by “calcium signal, replicate 1”, low to high:
flip (GeneID 40539) → calcium signal, replicate 1: 99.3; calcium signal, replicate 2: 197
TTLL4B (GeneID 33609) → calcium signal, replicate 1: 129; calcium signal, replicate 2: 188
CG42326 (GeneID 35838) #2 → calcium signal, replicate 1: 136; calcium signal, replicate 2: 152
asRNA:CR30267 (GeneID 12798141) → calcium signal, replicate 1: 154; calcium signal, replicate 2: 103

The results go on.
What did the screen give for Ggamma1 (GeneID 35881)?
calcium signal, replicate 1: 190; calcium signal, replicate 2: 114

Which result is listed for Fic (GeneID 33897)?
calcium signal, replicate 1: 200; calcium signal, replicate 2: 198

For CG13148 (GeneID 36398), how do the results read?
calcium signal, replicate 1: 137; calcium signal, replicate 2: 190

For Tom (GeneID 39619), how do the results read?
calcium signal, replicate 1: 106; calcium signal, replicate 2: 145

For RN-tre (GeneID 36554), what does the deposit list?
calcium signal, replicate 1: 107; calcium signal, replicate 2: 198

For CG14569 (GeneID 40417), what was measured?
calcium signal, replicate 1: 112; calcium signal, replicate 2: 171

Which result is listed for Xpd (GeneID 37414)?
calcium signal, replicate 1: 152; calcium signal, replicate 2: 78.8

With CG6503 (GeneID 50079), how do the results read?
calcium signal, replicate 1: 275; calcium signal, replicate 2: 143

Which result is listed for Obp59a (GeneID 37605)?
calcium signal, replicate 1: 131; calcium signal, replicate 2: 203

What is on record for mthl3 (GeneID 36961)?
calcium signal, replicate 1: 90.4; calcium signal, replicate 2: 127

With epsilonCOP (GeneID 33908), how do the results read?
calcium signal, replicate 1: 121; calcium signal, replicate 2: 230

What is on record for CG5731 (GeneID 34355)?
calcium signal, replicate 1: 117; calcium signal, replicate 2: 132

For CG7685 (GeneID 42220), how do the results read?
calcium signal, replicate 1: 191; calcium signal, replicate 2: 192

What is on record for Nepl20 (GeneID 43412)?
calcium signal, replicate 1: 191; calcium signal, replicate 2: 109

Which result is listed for CG33465 (GeneID 3885587)?
calcium signal, replicate 1: 70.7; calcium signal, replicate 2: 81

For robl22E (GeneID 33412), what was measured?
calcium signal, replicate 1: 164; calcium signal, replicate 2: 147

For CG6310 (GeneID 39237), how do the results read?
calcium signal, replicate 1: 104; calcium signal, replicate 2: 115
